{"sequences": {"note": "The chains behind the UniProt entries cited, without tags or fusion partners.", "EIF3A, Q14152, UniProt Q14152, whole entry": "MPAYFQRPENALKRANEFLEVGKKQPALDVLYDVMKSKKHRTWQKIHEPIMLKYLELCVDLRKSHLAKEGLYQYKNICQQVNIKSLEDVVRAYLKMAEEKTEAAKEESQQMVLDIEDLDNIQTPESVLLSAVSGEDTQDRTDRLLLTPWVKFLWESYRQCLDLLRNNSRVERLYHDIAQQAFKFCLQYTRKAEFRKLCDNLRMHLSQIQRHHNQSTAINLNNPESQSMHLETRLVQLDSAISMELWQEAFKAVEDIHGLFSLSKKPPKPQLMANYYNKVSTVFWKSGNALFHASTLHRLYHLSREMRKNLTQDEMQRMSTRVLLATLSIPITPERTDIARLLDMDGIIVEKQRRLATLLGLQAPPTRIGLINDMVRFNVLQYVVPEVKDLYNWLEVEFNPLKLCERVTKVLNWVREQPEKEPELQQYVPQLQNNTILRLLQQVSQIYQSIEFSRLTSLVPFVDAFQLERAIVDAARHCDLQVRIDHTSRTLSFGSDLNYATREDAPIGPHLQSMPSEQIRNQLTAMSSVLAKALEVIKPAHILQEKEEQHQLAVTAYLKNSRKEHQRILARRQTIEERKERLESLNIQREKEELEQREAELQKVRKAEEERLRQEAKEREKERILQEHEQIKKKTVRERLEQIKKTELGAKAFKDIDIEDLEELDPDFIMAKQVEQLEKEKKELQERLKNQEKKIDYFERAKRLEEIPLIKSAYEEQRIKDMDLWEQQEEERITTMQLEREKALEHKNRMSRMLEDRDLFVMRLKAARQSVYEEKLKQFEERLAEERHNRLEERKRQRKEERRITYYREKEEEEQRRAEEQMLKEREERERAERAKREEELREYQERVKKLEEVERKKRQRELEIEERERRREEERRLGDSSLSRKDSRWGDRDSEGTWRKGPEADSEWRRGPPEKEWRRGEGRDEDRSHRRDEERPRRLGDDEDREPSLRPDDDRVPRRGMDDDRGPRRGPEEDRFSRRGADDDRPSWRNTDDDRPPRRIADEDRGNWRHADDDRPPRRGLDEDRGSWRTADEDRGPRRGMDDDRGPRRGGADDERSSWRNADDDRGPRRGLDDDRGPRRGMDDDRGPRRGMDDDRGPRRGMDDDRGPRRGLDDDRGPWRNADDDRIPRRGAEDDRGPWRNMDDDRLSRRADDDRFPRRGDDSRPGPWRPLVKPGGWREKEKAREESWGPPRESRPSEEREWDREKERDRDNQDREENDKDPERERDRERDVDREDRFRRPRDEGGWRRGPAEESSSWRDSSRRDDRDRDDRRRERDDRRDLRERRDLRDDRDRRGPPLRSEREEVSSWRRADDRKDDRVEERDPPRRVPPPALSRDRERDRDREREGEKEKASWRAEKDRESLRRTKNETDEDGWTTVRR", "CHTF18, Q8WVB6, UniProt Q8WVB6, whole entry": "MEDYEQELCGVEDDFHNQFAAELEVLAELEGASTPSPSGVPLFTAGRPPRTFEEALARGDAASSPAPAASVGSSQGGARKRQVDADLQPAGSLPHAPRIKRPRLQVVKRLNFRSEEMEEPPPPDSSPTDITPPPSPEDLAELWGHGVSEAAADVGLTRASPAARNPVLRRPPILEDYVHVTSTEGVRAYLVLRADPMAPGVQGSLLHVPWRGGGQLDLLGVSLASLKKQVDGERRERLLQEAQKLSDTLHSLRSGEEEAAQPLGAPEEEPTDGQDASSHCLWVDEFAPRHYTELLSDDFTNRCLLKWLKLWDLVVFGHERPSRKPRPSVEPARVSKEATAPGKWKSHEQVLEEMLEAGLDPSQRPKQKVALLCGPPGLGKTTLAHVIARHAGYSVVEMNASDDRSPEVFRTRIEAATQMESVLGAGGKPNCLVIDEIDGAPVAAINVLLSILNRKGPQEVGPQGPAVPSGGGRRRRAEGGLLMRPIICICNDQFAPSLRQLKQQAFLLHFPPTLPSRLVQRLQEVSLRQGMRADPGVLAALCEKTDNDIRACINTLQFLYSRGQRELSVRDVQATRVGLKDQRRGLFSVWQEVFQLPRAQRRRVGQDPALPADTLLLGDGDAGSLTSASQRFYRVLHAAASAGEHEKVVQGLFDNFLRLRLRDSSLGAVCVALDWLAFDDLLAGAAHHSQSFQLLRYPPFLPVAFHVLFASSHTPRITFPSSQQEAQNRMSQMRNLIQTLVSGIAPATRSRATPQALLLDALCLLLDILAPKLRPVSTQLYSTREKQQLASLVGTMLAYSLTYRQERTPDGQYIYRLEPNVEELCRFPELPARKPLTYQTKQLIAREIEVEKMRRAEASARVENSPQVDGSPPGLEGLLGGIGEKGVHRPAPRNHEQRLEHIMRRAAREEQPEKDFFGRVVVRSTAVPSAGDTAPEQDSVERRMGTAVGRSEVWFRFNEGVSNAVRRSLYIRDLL", "H2AFY2, Q9P0M6, UniProt Q9P0M6, whole entry": "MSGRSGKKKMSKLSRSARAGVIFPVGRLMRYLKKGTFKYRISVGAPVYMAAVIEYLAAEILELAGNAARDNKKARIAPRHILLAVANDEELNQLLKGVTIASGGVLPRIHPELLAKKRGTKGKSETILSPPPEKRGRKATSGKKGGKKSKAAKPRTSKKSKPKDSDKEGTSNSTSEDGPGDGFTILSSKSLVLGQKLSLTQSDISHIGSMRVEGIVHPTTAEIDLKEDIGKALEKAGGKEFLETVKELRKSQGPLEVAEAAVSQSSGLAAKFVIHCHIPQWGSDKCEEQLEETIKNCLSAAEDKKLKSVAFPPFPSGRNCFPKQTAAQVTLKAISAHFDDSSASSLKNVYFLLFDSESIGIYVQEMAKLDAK", "PRMT5, O14744, UniProt O14744, whole entry": "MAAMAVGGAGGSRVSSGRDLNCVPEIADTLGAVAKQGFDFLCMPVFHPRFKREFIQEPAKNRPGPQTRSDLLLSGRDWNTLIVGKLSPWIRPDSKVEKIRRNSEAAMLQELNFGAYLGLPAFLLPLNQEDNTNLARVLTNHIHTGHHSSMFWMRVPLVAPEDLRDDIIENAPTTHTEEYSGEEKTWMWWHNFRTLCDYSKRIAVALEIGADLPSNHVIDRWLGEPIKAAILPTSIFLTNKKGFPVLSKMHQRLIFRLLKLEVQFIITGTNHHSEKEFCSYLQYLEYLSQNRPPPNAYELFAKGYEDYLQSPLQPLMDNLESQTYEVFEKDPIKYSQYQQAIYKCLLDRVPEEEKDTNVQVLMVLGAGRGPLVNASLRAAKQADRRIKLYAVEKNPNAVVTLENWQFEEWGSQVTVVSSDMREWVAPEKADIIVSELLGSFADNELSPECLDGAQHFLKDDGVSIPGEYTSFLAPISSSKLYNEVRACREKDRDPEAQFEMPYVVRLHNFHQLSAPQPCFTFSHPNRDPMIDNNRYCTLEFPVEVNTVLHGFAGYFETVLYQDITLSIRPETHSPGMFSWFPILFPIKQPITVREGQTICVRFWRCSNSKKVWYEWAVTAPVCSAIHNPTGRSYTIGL", "RFC4, P35249, UniProt P35249, whole entry": "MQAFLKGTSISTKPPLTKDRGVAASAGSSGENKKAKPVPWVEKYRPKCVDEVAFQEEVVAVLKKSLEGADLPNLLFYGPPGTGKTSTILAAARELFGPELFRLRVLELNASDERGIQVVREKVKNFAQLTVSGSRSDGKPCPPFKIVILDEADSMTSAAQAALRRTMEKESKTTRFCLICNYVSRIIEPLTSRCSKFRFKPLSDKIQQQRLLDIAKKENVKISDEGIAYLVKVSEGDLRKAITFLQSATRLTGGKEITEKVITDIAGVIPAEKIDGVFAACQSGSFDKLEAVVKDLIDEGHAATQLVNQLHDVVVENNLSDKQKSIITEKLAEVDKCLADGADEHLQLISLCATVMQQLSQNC", "SNRPG, P62308, UniProt P62308, whole entry": "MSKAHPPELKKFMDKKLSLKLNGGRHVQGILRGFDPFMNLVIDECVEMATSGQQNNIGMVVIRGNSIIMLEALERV", "PSMD14, O00487, UniProt O00487, whole entry": "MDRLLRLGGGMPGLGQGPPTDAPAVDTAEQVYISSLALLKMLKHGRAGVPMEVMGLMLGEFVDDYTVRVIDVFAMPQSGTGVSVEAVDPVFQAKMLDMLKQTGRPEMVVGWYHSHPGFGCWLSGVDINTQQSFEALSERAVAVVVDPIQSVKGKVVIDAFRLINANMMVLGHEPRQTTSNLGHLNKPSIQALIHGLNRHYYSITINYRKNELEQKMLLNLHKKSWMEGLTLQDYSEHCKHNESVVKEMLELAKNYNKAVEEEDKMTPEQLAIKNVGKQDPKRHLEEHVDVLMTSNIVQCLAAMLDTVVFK"}, "source": "the supplement of paper PMC10032668", "assay_in_all_cases": "PRISMA enrichment of interactor (LFQ) in peptide spot vs all other peptide spots (log2 fold change); higher = stronger / more specific binding of the interactor to the peptide", "key": {"ACAT1, P24752": {"target": "ACAT1, P24752", "protocol": "(§1)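 PRISMA: 15-aa overlapping tiles (offset 8 aa) of 60 microproteins, plus SOS1/GLUT1 control peptides, were spot-synthesized on cellulose membranes in triplicate. Membranes were incubated with benzonase-treated HEK293T lysate, and bound proteins were identified by LC-MS/MS with LFQ. Enrichment is the log2 fold change of each protein in one spot versus all other spots. Only interactors passing the significance cutoff are listed.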"}, "ACLY, P53396": {"target": "ACLY, P53396", "protocol": "as §1"}, "AIMP2, Q13155": {"target": "AIMP2, Q13155", "protocol": "as §1"}, "ALDH1L1, O75891": {"target": "ALDH1L1, O75891", "protocol": "as §1"}, "DNAJA1, P31689": {"target": "DNAJA1, P31689", "protocol": "as §1"}, "EIF3A, Q14152": {"target": "EIF3A, Q14152", "protocol": "as §1"}, "MCM10, Q7L590": {"target": "MCM10, Q7L590", "protocol": "as §1"}, "NCBP3, Q53F19": {"target": "NCBP3, Q53F19", "protocol": "as §1"}, "PDS5A, Q29RF7": {"target": "PDS5A, Q29RF7", "protocol": "as §1"}, "PJA2, O43164": {"target": "PJA2, O43164", "protocol": "as §1"}, "SRPK2, P78362": {"target": "SRPK2, P78362", "protocol": "as §1"}, "TAB2, Q9NYJ8": {"target": "TAB2, Q9NYJ8", "protocol": "as §1"}, "TMEM263, Q8WUH6": {"target": "TMEM263, Q8WUH6", "protocol": "as §1"}, "TRA2B, P62995": {"target": "TRA2B, P62995", "protocol": "as §1"}, "ACAT2, Q9BWD1": {"target": "ACAT2, Q9BWD1", "protocol": "as §1"}, "AKAP1, Q92667": {"target": "AKAP1, Q92667", "protocol": "as §1"}, "CHTF18, Q8WVB6": {"target": "CHTF18, Q8WVB6", "protocol": "as §1"}, "COPG1, Q9Y678": {"target": "COPG1, Q9Y678", "protocol": "as §1"}, "FASTKD3, Q14CZ7": {"target": "FASTKD3, Q14CZ7", "protocol": "as §1"}, "GALK1, P51570": {"target": "GALK1, P51570", "protocol": "as §1"}, "H2AFY2, Q9P0M6": {"target": "H2AFY2, Q9P0M6", "protocol": "as §1"}, "IMPDH2, P12268": {"target": "IMPDH2, P12268", "protocol": "as §1"}, "IQCB1, Q15051": {"target": "IQCB1, Q15051", "protocol": "as §1"}, "KCNH1, O95259": {"target": "KCNH1, O95259", "protocol": "as §1"}, "LRRC40, Q9H9A6": {"target": "LRRC40, Q9H9A6", "protocol": "as §1"}, "MAP4K4, O95819": {"target": "MAP4K4, O95819", "protocol": "as §1"}, "MCM6, Q14566": {"target": "MCM6, Q14566", "protocol": "as §1"}, "NCAPG, Q9BPX3": {"target": "NCAPG, Q9BPX3", "protocol": "as §1"}, "PRMT5, O14744": {"target": "PRMT5, O14744", "protocol": "as §1"}, "PYCR3, Q53H96": {"target": "PYCR3, Q53H96", "protocol": "as §1"}, "RFC4, P35249": {"target": "RFC4, P35249", "protocol": "as §1"}, "SDE2, Q6IQ49": {"target": "SDE2, Q6IQ49", "protocol": "as §1"}, "SH3GL1, Q99961": {"target": "SH3GL1, Q99961", "protocol": "as §1"}, "SNRPG, P62308": {"target": "SNRPG, P62308", "protocol": "as §1"}, "SYMPK, Q92797": {"target": "SYMPK, Q92797", "protocol": "as §1"}, "ARL6IP5, O75915": {"target": "ARL6IP5, O75915", "protocol": "as §1"}, "C19orf53, Q9UNZ5": {"target": "C19orf53, Q9UNZ5", "protocol": "as §1"}, "CHCHD6, Q9BRQ6": {"target": "CHCHD6, Q9BRQ6", "protocol": "as §1"}, "CTBP1, Q13363": {"target": "CTBP1, Q13363", "protocol": "as §1"}, "CTR9, Q6PD62": {"target": "CTR9, Q6PD62", "protocol": "as §1"}, "ECI2, O75521": {"target": "ECI2, O75521", "protocol": "as §1"}, "EED, O75530": {"target": "EED, O75530", "protocol": "as §1"}, "EIF4H, Q15056": {"target": "EIF4H, Q15056", "protocol": "as §1"}, "MRPL40, Q9NQ50": {"target": "MRPL40, Q9NQ50", "protocol": "as §1"}, "POLRMT, O00411": {"target": "POLRMT, O00411", "protocol": "as §1"}, "PRRC2C, Q9Y520": {"target": "PRRC2C, Q9Y520", "protocol": "as §1"}, "PSMD14, O00487": {"target": "PSMD14, O00487", "protocol": "as §1"}, "RNF2, Q99496": {"target": "RNF2, Q99496", "protocol": "as §1"}}, "note": "The list shows a part of the results. Only hits are listed; about a third recur on repeated control peptides."}
{"binder": "TPAPCGTRLRSLEAV", "values": [{"measurement": "PRISMA enrichment of interactor (log2)", "setting": "ACAT1, P24752", "value": 6.92}, {"measurement": "PRISMA enrichment of interactor (log2)", "setting": "ACLY, P53396", "value": 4.79}, {"measurement": "PRISMA enrichment of interactor (log2)", "setting": "AIMP2, Q13155", "value": 4.87}, {"measurement": "PRISMA enrichment of interactor (log2)", "setting": "ALDH1L1, O75891", "value": 7.43}, {"measurement": "PRISMA enrichment of interactor (log2)", "setting": "DNAJA1, P31689", "value": 4.93}, {"measurement": "PRISMA enrichment of interactor (log2)", "setting": "EIF3A, Q14152", "value": 4.84}, {"measurement": "PRISMA enrichment of interactor (log2)", "setting": "MCM10, Q7L590", "value": 4.97}, {"measurement": "PRISMA enrichment of interactor (log2)", "setting": "NCBP3, Q53F19", "value": 4.08}, {"measurement": "PRISMA enrichment of interactor (log2)", "setting": "PDS5A, Q29RF7", "value": 5.28}, {"measurement": "PRISMA enrichment of interactor (log2)", "setting": "PJA2, O43164", "value": 4.05}, {"measurement": "PRISMA enrichment of interactor (log2)", "setting": "SRPK2, P78362", "value": 4}, {"measurement": "PRISMA enrichment of interactor (log2)", "setting": "TAB2, Q9NYJ8", "value": 4.51}, {"measurement": "PRISMA enrichment of interactor (log2)", "setting": "TMEM263, Q8WUH6", "value": 5.05}, {"measurement": "PRISMA enrichment of interactor (log2)", "setting": "TRA2B, P62995", "value": 5.69}]}
{"binder": "RLRSLEAVSVIRMHW", "values": [{"measurement": "PRISMA enrichment of interactor (log2)", "setting": "ACAT1, P24752", "value": 5.17}, {"measurement": "PRISMA enrichment of interactor (log2)", "setting": "ACAT2, Q9BWD1", "value": 5.54}, {"measurement": "PRISMA enrichment of interactor (log2)", "setting": "AKAP1, Q92667", "value": 4.73}, {"measurement": "PRISMA enrichment of interactor (log2)", "setting": "CHTF18, Q8WVB6", "value": 4.14}, {"measurement": "PRISMA enrichment of interactor (log2)", "setting": "COPG1, Q9Y678", "value": 10.5}, {"measurement": "PRISMA enrichment of interactor (log2)", "setting": "FASTKD3, Q14CZ7", "value": 3.87}, {"measurement": "PRISMA enrichment of interactor (log2)", "setting": "GALK1, P51570", "value": 5}, {"measurement": "PRISMA enrichment of interactor (log2)", "setting": "H2AFY2, Q9P0M6", "value": 6.13}, {"measurement": "PRISMA enrichment of interactor (log2)", "setting": "IMPDH2, P12268", "value": 9.64}, {"measurement": "PRISMA enrichment of interactor (log2)", "setting": "IQCB1, Q15051", "value": 6.48}, {"measurement": "PRISMA enrichment of interactor (log2)", "setting": "KCNH1, O95259", "value": 3.72}, {"measurement": "PRISMA enrichment of interactor (log2)", "setting": "LRRC40, Q9H9A6", "value": 6.01}, {"measurement": "PRISMA enrichment of interactor (log2)", "setting": "MAP4K4, O95819", "value": 5.68}, {"measurement": "PRISMA enrichment of interactor (log2)", "setting": "MCM6, Q14566", "value": 5.05}, {"measurement": "PRISMA enrichment of interactor (log2)", "setting": "NCAPG, Q9BPX3", "value": 5.05}, {"measurement": "PRISMA enrichment of interactor (log2)", "setting": "PRMT5, O14744", "value": 9.71}, {"measurement": "PRISMA enrichment of interactor (log2)", "setting": "PYCR3, Q53H96", "value": 4.41}, {"measurement": "PRISMA enrichment of interactor (log2)", "setting": "RFC4, P35249", "value": 6.05}, {"measurement": "PRISMA enrichment of interactor (log2)", "setting": "SDE2, Q6IQ49", "value": 4.18}, {"measurement": "PRISMA enrichment of interactor (log2)", "setting": "SH3GL1, Q99961", "value": 4.54}, {"measurement": "PRISMA enrichment of interactor (log2)", "setting": "SNRPG, P62308", "value": 7.13}, {"measurement": "PRISMA enrichment of interactor (log2)", "setting": "SYMPK, Q92797", "value": 4.16}]}
{"binder": "LLMKASHKTRLIQGV", "note": "[RP3-332B22.1]", "values": [{"measurement": "PRISMA enrichment of interactor (log2)", "setting": "ACAT2, Q9BWD1", "value": 4.14}, {"measurement": "PRISMA enrichment of interactor (log2)", "setting": "ARL6IP5, O75915", "value": 7.25}, {"measurement": "PRISMA enrichment of interactor (log2)", "setting": "C19orf53, Q9UNZ5", "value": 6.34}, {"measurement": "PRISMA enrichment of interactor (log2)", "setting": "CHCHD6, Q9BRQ6", "value": 6.34}, {"measurement": "PRISMA enrichment of interactor (log2)", "setting": "CTBP1, Q13363", "value": 3.79}, {"measurement": "PRISMA enrichment of interactor (log2)", "setting": "CTR9, Q6PD62", "value": 7.65}, {"measurement": "PRISMA enrichment of interactor (log2)", "setting": "ECI2, O75521", "value": 5.03}, {"measurement": "PRISMA enrichment of interactor (log2)", "setting": "EED, O75530", "value": 6.88}, {"measurement": "PRISMA enrichment of interactor (log2)", "setting": "EIF4H, Q15056", "value": 4.56}, {"measurement": "PRISMA enrichment of interactor (log2)", "setting": "LRRC40, Q9H9A6", "value": 6.26}, {"measurement": "PRISMA enrichment of interactor (log2)", "setting": "MRPL40, Q9NQ50", "value": 6.55}, {"measurement": "PRISMA enrichment of interactor (log2)", "setting": "POLRMT, O00411", "value": 7.8}, {"measurement": "PRISMA enrichment of interactor (log2)", "setting": "PRRC2C, Q9Y520", "value": 6.89}, {"measurement": "PRISMA enrichment of interactor (log2)", "setting": "PSMD14, O00487", "value": 4.26}, {"measurement": "PRISMA enrichment of interactor (log2)", "setting": "RNF2, Q99496", "value": 3.85}]}
